The list shows a part of the results.

Amino acid sequences for entries named in this document (tags omitted).
UniProt Q0JBA9, entry or part of it: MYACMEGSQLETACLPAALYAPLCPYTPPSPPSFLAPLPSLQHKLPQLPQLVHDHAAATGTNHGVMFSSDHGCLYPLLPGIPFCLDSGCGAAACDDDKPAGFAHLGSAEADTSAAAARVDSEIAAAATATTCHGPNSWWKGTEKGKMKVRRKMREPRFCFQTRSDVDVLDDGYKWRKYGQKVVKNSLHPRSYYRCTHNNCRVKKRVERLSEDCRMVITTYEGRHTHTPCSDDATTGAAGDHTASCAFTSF

This experiment addresses OsWRKY34 (Oryza sativa, UniProt Q0JBA9 1-250). The experiment is described as follows: protein-binding microarray (RPBM); PBS, 2% BSA, 51.3 ng/ul salmon testes DNA, 50 uM zinc acetate, 200 nM TF, 25 C, 1 h; high values mean tight binding. Conditions: protein: recombinant; tags: N-terminal polyhistidine and DsRed monomer fusion (pET32a); label: CyDye5-dUTP incorporated in the synthesized complementary strand; 3' TTTTT single-stranded linker to array surface; dsDNA, one strand shown. Summed up:
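Transcription factors were made in E. coli BL21-CodonPlus as N-terminal fusions to a polyhistidine tag and DsRed, then purified on Ni–NTA. After primer extension with Cy5-dUTP and blocking with 2% BSA, a custom Agilent array was exposed for 1 h at 25 °C to 200 nM protein in PBS, 2% BSA, salmon testes DNA and 50 µM zinc acetate. Washed arrays were scanned on an Axon 4000B, and the binding signal is per-feature fluorescence intensity in arbitrary units.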
On to “ACCCGAGCCGAGCCCAACGGTAATATTTCCTTTCCATTTCCGGAGTCACCTAGTGCAG”, for which the binding signal is 11500 fluorescence intensity (a.u.).

For “AAGGGCGAGGGTGGGTATGGGACAAGGCGGTGGACGATGGCGGAGTCACCTAGTGCAG”, the binding signal is 10300 fluorescence intensity (a.u.).

Consider “TGCTTACTATACTATTAATATCTGGTCCCATCTGTCATACCGGAGTCACCTAGTGCAG”, for which the binding signal was 9090 fluorescence intensity (a.u.).

For the sequence “AATATACCATCTTTGACCCACGTCTCATTGTCTTTGTAACCGGAGTCACCTAGTGCAG”, the binding signal is 9700 fluorescence intensity (a.u.).

For “CTTAGCAGGACGGACTTAGGGGTGGCAATTTTCTCTTTCTCGGAGTCACCTAGTGCAG”, the binding signal was 9140 fluorescence intensity (a.u.).

Consider “ATATATATATATATATATATATTTTGTCTTGAGTGGTTTGCGGAGTCACCTAGTGCAG”, for which the binding signal was 11700 fluorescence intensity (a.u.).

As to “GTGACCGCCACGCCCGCTCCGCCGTCGGCCGCACACACGCCGGAGTCACCTAGTGCAG”, the binding signal is 9230 fluorescence intensity (a.u.).

Consider “CGTCCGCCGCACCACTCCATCTCCGATCTCCCTGAGTCGCCGGAGTCACCTAGTGCAG”, for which the binding signal was 8060 fluorescence intensity (a.u.).

Regarding “GTTTGAATCATGTAGCTTAGCTCTCGCTCGATCGTCCAATCGGAGTCACCTAGTGCAG”, the binding signal was 8520 fluorescence intensity (a.u.).

In the case of “GGCAAGAGAGAGAATTAAGCAGGTCAAAGTCAACTCATGCCGGAGTCACCTAGTGCAG”, the binding signal was 8100 fluorescence intensity (a.u.).

Take “TTAATTGCTTGGTTTACTGACCATTTCCACTTGGAAAACTCGGAGTCACCTAGTGCAG”: the binding signal is 9380 fluorescence intensity (a.u.).

For the sequence “CTGCCGCGCTTCGTCGCCGCGCTCGCCCGTCTTTCGCTCTCGGAGTCACCTAGTGCAG”, the binding signal is 8230 fluorescence intensity (a.u.).

Turning to “GCACCAAGGCCAATACTTGTCCGGATCACCAAGGACACCTCGGAGTCACCTAGTGCAG”, the binding signal is 8020 fluorescence intensity (a.u.).

Take “GGTCAAATACGTACTAAAAAGTCAACGGTGTCAAACATTTCGGAGTCACCTAGTGCAG”: the binding signal was 12900 fluorescence intensity (a.u.).

For the sequence “CCCTAGCCATCCCGCCGCCTCCGCCGCCGACGACGACATGCGGAGTCACCTAGTGCAG”, the binding signal was 8860 fluorescence intensity (a.u.).

As to “TCCGTTCTATCCTACGCATATCTTTACCTCTAGCAATTAACGGAGTCACCTAGTGCAG”, the binding signal was 11900 fluorescence intensity (a.u.).

For “ACACGCCCGCCCGCCGCCTCCACCGTCTCCGCTCGCCGCGCGGAGTCACCTAGTGCAG”, the binding signal was 10500 fluorescence intensity (a.u.).

For “TTGGGAGGGTTTTTCACGTTAAATCTCGTGTCTTCTGTAACGGAGTCACCTAGTGCAG”, the binding signal is 29500 fluorescence intensity (a.u.).

On to “TTGAATCGATTCCCTTGCCTCACCTCGCTGTTGTCGCCGACGGAGTCACCTAGTGCAG”, for which the binding signal was 9000 fluorescence intensity (a.u.).

Take “TATTTAACACCGTTGACTTTTTAGCACATGTTTGACCGTTCGGAGTCACCTAGTGCAG”: the binding signal is 38200 fluorescence intensity (a.u.).

For the sequence “TCCCTCTGTTTTACAATGTAAGTCATTCTAGCATTTCCCACGGAGTCACCTAGTGCAG”, the binding signal is 10300 fluorescence intensity (a.u.).

Regarding “TGCTCTATCATACGAAATGTCACACTGTTTTGTGCGTGTTCGGAGTCACCTAGTGCAG”, the binding signal was 8520 fluorescence intensity (a.u.).

Consider “TTCTCTTGTCACCTTCACCAATTTTCTTTCCCCGTTGGTTCGGAGTCACCTAGTGCAG”, for which the binding signal was 11800 fluorescence intensity (a.u.).

Regarding “CGGACCGTTTTGTACATACATTTATTCCTTCTTAATACAACGGAGTCACCTAGTGCAG”, the binding signal was 10300 fluorescence intensity (a.u.).

Consider “CATTCCATCATTCTTTCTTTCCTCTTCGAACTTTGTGCTTCGGAGTCACCTAGTGCAG”, for which the binding signal was 8280 fluorescence intensity (a.u.).

In the case of “ATGCACCACAGATTCCGTTCGTCACGCGCCCGTTCACACCCGGAGTCACCTAGTGCAG”, the binding signal is 8090 fluorescence intensity (a.u.).

On to “AATCCTCACGGGGCCTCACATCCCCTTTCTCGCCGGCGCCCGGAGTCACCTAGTGCAG”, for which the binding signal is 10700 fluorescence intensity (a.u.).

With “ATGGTTGGACTTTTTTTAGCTCTTTTCAGTTTAGTTTCCTCGGAGTCACCTAGTGCAG”, the binding signal was 12400 fluorescence intensity (a.u.).

For the sequence “CGATGTCGCCGTGTGGGTGGTGGTATATTTGGTTGTAATCCGGAGTCACCTAGTGCAG”, the binding signal was 10600 fluorescence intensity (a.u.).

With “TACCTCATTGGCACCTAGACCACACAATGCATTCAAAACACGGAGTCACCTAGTGCAG”, the binding signal was 8580 fluorescence intensity (a.u.).

In the case of “CCTTACTCATTTTTTTATATAATTGCCTGGCGAAATTTTCCGGAGTCACCTAGTGCAG”, the binding signal is 9280 fluorescence intensity (a.u.).

In the case of “AAACGACTCTCAACTTGTGCAATGGATCTGTTTTTCTACACGGAGTCACCTAGTGCAG”, the binding signal was 9530 fluorescence intensity (a.u.).

With “GACCACCCATCTAGTTTTAATTATATTATGGTTATATTTACGGAGTCACCTAGTGCAG”, the binding signal is 9660 fluorescence intensity (a.u.).

On to “AAATCATCACACTCCCAGCATTCAATCTACTCACACACACCGGAGTCACCTAGTGCAG”, for which the binding signal was 8760 fluorescence intensity (a.u.).

For the sequence “GCTCGCAGCTCCGTCCATCTCGTCATGGCTGCCTCAAGCTCGGAGTCACCTAGTGCAG”, the binding signal was 9960 fluorescence intensity (a.u.).

Turning to “TCCCTGTGTACTTCTTGTCTCCTTCCTTTTTGTTGACTCACGGAGTCACCTAGTGCAG”, the binding signal was 15600 fluorescence intensity (a.u.).

For “TTCCTTTTACTCGCTCGCTCGCTCGCTGGGTGTTCGTCCACGGAGTCACCTAGTGCAG”, the binding signal is 8220 fluorescence intensity (a.u.).

For “ACCACTTGCAGGTAGGTTGTTGCTCGTTTTAATTCCTACTCGGAGTCACCTAGTGCAG”, the binding signal is 11000 fluorescence intensity (a.u.).

As to “AACTTCTCGCGTGTCCTTCTCGTACTGGGCTGGGCTGGGCCGGAGTCACCTAGTGCAG”, the binding signal is 12000 fluorescence intensity (a.u.).

Regarding “TCATCAAATTCCTGCGTTTTTCTTGCGGTTCAATCAAACGCGGAGTCACCTAGTGCAG”, the binding signal was 10700 fluorescence intensity (a.u.).

Take “ATGTTTTTTTTCTCGGTTTATCACCACTGTGTTTGTATGACGGAGTCACCTAGTGCAG”: the binding signal is 10700 fluorescence intensity (a.u.).

In the case of “AATTAGCTTTTCTGGAGAGTTTTTGGTCAGCCATTTTTTGCGGAGTCACCTAGTGCAG”, the binding signal was 8260 fluorescence intensity (a.u.).
